No constants are given. Whether binding was seen depends on the method and setting. Some entries that bind do so weakly or less than the wild type.
Key:
[1] = biological target: ZZ-bdSUMO tagged (non-hypusinated) eIF5A E42A (not stated (mammalian)) (UniProt P63241); assay: pull-down; 1 μM untagged RanGTP and Xpo4 with 0.75 μM ZZ-bdSUMO tagged (non-hypusinated) wild-type or mutant eIF5A, 50 mM NaCl buffer; retrieved via tagged eIF5A; eluted by bdSENP1; SDS-PAGE, Coomassie; both purified
[2] = biological target: ZZ-bdSUMO tagged (non-hypusinated) wild-type eIF5A (not stated (mammalian)) (UniProt P63241); assay: as above
[3] = biological target: Xpo4 E537Q (not stated (mammalian)) (UniProt Q9ESJ0); assay: pull-down; 1 μM Xpo4 wild type or mutants, 0.75 μM ZZ-bdNEDD8-tagged RanGTP, 1.25 μM hypusinated eIF5A, 100 mM NaCl buffer; retrieved via tagged Ran; eluted by bdNEDP1 protease; SDS-PAGE, Coomassie; both purified
[4] = biological target: Xpo4 D470N (not stated (mammalian)) (UniProt Q9ESJ0); assay: as above
[5] = biological target: Xpo4 S631A (not stated (mammalian)) (UniProt Q9ESJ0); assay: as above

Sequences of proteins named here, by UniProt entry; tags and fusion partners are left off. A change or cut given only in a name is not applied to a line headed by its entry. A line that says so, or that is headed by a name, gives the form on record, which may keep a tag or linker. Residues count along the entry.
UniProt P63241: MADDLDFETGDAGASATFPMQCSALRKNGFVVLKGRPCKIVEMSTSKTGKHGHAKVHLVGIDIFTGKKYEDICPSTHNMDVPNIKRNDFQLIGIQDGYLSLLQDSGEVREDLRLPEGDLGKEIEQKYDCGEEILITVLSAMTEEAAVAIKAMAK
ZZ-bdSUMO tagged (non-hypusinated) wild-type eIF5A (not stated (mammalian)): residues 15-151 of P63241
ZZ-bdSUMO tagged (non-hypusinated) eIF5A E42A (not stated (mammalian)) (P63241, form named): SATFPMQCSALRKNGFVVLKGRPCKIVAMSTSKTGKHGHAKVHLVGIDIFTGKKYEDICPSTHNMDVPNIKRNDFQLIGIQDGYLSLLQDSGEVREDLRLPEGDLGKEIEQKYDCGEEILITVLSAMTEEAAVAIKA
UniProt Q9ESJ0: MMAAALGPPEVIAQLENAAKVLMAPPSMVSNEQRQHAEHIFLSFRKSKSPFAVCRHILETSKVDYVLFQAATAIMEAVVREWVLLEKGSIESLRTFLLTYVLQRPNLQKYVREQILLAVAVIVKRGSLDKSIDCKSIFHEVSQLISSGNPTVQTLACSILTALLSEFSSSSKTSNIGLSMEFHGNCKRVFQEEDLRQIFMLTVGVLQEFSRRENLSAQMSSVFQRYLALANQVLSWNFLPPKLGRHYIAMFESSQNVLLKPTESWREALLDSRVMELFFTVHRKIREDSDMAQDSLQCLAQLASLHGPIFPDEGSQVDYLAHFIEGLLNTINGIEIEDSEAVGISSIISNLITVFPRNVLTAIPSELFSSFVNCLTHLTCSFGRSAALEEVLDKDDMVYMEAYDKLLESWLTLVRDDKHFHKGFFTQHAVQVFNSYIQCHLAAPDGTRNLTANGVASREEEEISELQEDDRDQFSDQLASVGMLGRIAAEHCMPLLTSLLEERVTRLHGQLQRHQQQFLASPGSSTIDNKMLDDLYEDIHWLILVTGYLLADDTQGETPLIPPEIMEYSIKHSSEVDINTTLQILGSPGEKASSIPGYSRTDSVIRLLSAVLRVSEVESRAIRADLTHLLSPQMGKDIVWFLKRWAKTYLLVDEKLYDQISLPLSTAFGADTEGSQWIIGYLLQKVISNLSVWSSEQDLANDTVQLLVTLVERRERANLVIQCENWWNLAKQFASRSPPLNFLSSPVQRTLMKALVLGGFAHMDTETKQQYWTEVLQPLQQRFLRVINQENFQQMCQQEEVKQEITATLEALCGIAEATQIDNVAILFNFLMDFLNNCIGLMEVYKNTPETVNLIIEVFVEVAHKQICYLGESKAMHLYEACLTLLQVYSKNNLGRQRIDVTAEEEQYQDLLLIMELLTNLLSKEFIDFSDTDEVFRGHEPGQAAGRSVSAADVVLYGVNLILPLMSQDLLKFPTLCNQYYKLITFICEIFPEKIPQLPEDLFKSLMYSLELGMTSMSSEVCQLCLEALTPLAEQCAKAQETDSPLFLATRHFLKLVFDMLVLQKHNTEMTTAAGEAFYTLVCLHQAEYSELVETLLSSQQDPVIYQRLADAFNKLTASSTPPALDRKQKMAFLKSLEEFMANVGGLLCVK

Row | Substance | binding [1] | binding [2] | binding [3] | binding [4] | binding [5]
1 | Xpo4 wild type (from UniProt Q9ESJ0 1-1151) | binds | binds |  |  | 
2 | eIF5A, full-length, hypusinated (from UniProt P63241 1-154) |  |  | no binding (tested: 1 μM Xpo4, 1.25 μM hypusinated eIF5A) | no binding (tested: 1 μM Xpo4, 1.25 μM hypusinated eIF5A) | no binding (tested: 1 μM Xpo4, 1.25 μM hypusinated eIF5A)
